Some results were stated once for a whole list of compounds, not compound by compound.
tested on: Pseudomonas aeruginosa (gfp expression PAO1-strain); assay: Evaluation test for biofilm removal effect with respect to Pseudomonas aeruginosa (flow cell system); assay type: cell-based; settings: test liquid 100 μM; observed after 3, 4, 5, 6, 7 and 10 days
Protocol: With the flow cell system of FIG. 1, a removal effect against biofilms formed by Pseudomonas aeruginosa was evaluated for each of the amide compounds produced in Production Examples 1, 3, 5, and 6 (Compounds 1a-1, 1b-1, 1c-1, 1c-2), and for Comparative Compounds 1 to 3 as comparative examples.
The evaluation for biofilm removal effect was performed as follows. After cultivation of bacterias in the glass cell (4) of the flow cell system to grow a biofilm in the inner cell wall, a test liquid containing one of the amide compounds was applied to the biofilm.
As with Experiment Example 1, a gfp expression PAO1-strain was used.
At for the culture medium, the glucose-containing FAB culture medium, trace metal solution, and bacterial suspension as those of Experiment Example 1 were used.
The test liquid was prepared by dissolving 100 μM of each of the Compounds 1a-1, 1b-1, 1c-1 and 1c-2 according to Production Examples 1, 3, 5 and 6 and 100 μM of Comparative Compounds 1 to 3 as comparative examples denoted by the following formula in dimethyl sulfoxide (DMSO), and supplying the resulting DMSO solutions to a 0.3 mM glucose-containing FAB culture medium so that the concentration of each compound becomes 0.1%(v/v).
A DMSO not containing the compound was used as a control test liquid.
The flow cell system was filled with hydrous ethanol (70 volume %), and was allowed to stand for at least 12 hours to sterilize the system. Then, air having been filtrated by a membrane filter (8a) was supplied into the flow cell system using the peristaltic pump (2) to dry the system. […]
After the static culture, two of the three-way turncocks (7a,7b) were turned on, so as to supply each test liquid and control test liquid at a flow rate of 200 μL per minute. With a fluorescence confocal microscope, the process of biofilm formation (deposition) by the Pseudomonas aeruginosa (gfp expression PAO1-strain) adhered to the inner wall of the glass cell was observed three-dimensionally from above to observe changes over time (after 3 days, 4 days, 5 days, 6 days, 7 days, and 10 days). […]

SMILES	state of biofilm removal (disappearance of deposited biofilm, fluorescence confocal microscope)
CCCCCCCCCC(=O)CC(=O)Nc1ccccc1O [Comparative Compound 1, reference compound]	such disappearance of biofilm was not observed
CCCC(=O)NN1CCCC1 [Comparative Compound 2, reference compound]	such disappearance of biofilm was not observed
CCCC(=O)NN1CCCCC1 [Comparative Compound 3, reference compound]	such disappearance of biofilm was not observed

Source: patent US9000190B2, “Amide compound or salt thereof, biofilm inhibitor, biofilm remover and disinfectant containing the same” (The University of Tokyo, priority 2006, dated 2015)
